Binding data for one molecule are collected here from article doi:10.1101/2020.05.04.076208.

Sequences of proteins named here, by UniProt entry; tags and fusion partners are left off.
UniProt Q8R550: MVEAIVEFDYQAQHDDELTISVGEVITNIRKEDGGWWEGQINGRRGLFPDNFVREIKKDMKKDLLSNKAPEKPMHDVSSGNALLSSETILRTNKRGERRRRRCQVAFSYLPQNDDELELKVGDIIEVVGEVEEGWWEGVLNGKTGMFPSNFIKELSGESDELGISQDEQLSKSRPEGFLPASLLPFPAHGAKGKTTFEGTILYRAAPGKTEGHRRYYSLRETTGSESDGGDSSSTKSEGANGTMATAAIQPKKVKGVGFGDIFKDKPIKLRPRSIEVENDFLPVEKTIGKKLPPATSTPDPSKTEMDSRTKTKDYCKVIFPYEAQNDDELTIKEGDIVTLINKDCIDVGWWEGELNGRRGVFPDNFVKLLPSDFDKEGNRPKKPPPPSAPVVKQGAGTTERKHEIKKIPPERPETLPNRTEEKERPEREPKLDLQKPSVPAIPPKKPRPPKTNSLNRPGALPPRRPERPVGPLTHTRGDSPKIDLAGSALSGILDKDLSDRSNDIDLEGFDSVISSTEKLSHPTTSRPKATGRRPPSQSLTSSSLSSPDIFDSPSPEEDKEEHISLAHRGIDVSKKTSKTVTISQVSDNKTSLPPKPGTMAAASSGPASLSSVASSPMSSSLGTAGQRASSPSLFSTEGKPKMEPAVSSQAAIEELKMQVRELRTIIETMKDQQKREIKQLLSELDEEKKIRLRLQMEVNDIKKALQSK

The target in the experiment is full-length GFP-tagged SH3KBP1 (UniProt Q8R550). Put plainly: co-IP.

These are yes or no findings as the source states them, for the method shown. Binding seen in cells or lysates may run through a third protein. Some binding calls cover weakened binding; strength is not graded here.

B1: Calnexin (protein, UniProt P35564 21-591)
chain: HDGHDDDAIDIEDDLDDVIEEVEDSKSKSDASTPPSPKVTYKAPVPTGEVYFADSFDRGSLSGWILSKAKKDDTDDEIAKYDGKWEVDEMKETKLPGDKGLVLMSRAKHHAISAKLNKPFLFDTKPLIVQYEVNFQNGIECGGAYVKLLSKTAELSLDQFHDKTPYTIMFGPDKCGEDYKLHFIFRHKNPKTGVYEEKHAKRPDADLKTYFTDKKTHLYTLILNPDNSFEILVDQSVVNSGNLLNDMTPPVNPSREIEDPEDRKPEDWDERPKIADPDAVKPDDWDEDAPSKIPDEEATKPEGWLDDEPEYIPDPDAEKPEDWDEDMDGEWEAPQIANPKCESAPGCGVWQRPMIDNPNYKGKWKPPMIDNPNYQGIWKPRKIPNPDFFEDLEPFKMTPFSAIGLELWSMTSDIFFDNFIISGDRRVVDDWANDGWGLKKAADGAAEPGVVLQMLEAAEERPWLWVVYILTVALPVFLVILFCCSGKKQSNAMEYKKTDAPQPDVKDEEGKEEEKNKRDEEEEEEKLEEKQKSDAEEDGVTGSQDEEDSKPKAEEDEILNRSPRNRKPRRE
For the molecule B1, the binding result is “binds”.
